Where a name gives a salt, the structure may show the parent alone. This is one part of the list. Single values are uncertain here, since repeats match poorly.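 Assays used MDA-MB-231 triple-negative breast cancer cells and their brain-metastatic line MDA-MB-231BRM, stably carrying empty vector, full-length GLI1 or truncated tGLI1. After 48 h, viability was read with CellTiter-Blue and normalized to 1% DMSO vehicle. tGLI1 selectivity meant viability fell 20% more in tGLI1 cells than in vector and GLI1 cells.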
How the values were obtained:
Assay in all cases: cell viability relative to vehicle (DMSO) control (fraction); higher = more viable cells (less growth inhibition)
Details in all cases: treatment time 48 h
MDA-MB-231 GLI1 = test system: MDA-MB-231 GLI1
MDA-MB-231 Vector = test system: MDA-MB-231 Vector
MDA-MB-231 tGLI1 = test system: MDA-MB-231 tGLI1
MDA-MB-231BRM GLI1 = test system: MDA-MB-231BRM GLI1
MDA-MB-231BRM Vector = test system: MDA-MB-231BRM Vector
MDA-MB-231BRM tGLI1 = test system: MDA-MB-231BRM tGLI1

SMILES | cell viability (MDA-MB-231 GLI1; 0.05 µM) | cell viability (MDA-MB-231 GLI1; 0.5 µM) | cell viability (MDA-MB-231 GLI1; 5 µM) | cell viability (MDA-MB-231 Vector; 0.05 µM) | cell viability (MDA-MB-231 Vector; 0.5 µM) | cell viability (MDA-MB-231 Vector; 5 µM) | cell viability (MDA-MB-231 tGLI1; 0.05 µM) | cell viability (MDA-MB-231 tGLI1; 0.5 µM) | cell viability (MDA-MB-231 tGLI1; 5 µM) | cell viability (MDA-MB-231BRM GLI1; 0.05 µM) | cell viability (MDA-MB-231BRM GLI1; 0.5 µM) | cell viability (MDA-MB-231BRM GLI1; 5 µM) | cell viability (MDA-MB-231BRM Vector; 0.05 µM) | cell viability (MDA-MB-231BRM Vector; 0.5 µM) | cell viability (MDA-MB-231BRM Vector; 5 µM) | cell viability (MDA-MB-231BRM tGLI1; 0.05 µM) | cell viability (MDA-MB-231BRM tGLI1; 0.5 µM) | cell viability (MDA-MB-231BRM tGLI1; 5 µM)
CCC(=O)NCC[C@@H]1CCc2ccc3c(c21)CCO3 [Ramelteon (TAK-375)] | 1.07 | 1.15 | 1.13 | 1.09 | 0.956 | 1 | 1 | 1.09 | 1.09 | 1.03 | 1.01 | 0.963 | 1 | 1 | 0.981 | 1.08 | 1.01 | 1.03
Cc1cc(C(C)Nc2ccccc2)c2nc(N3CCOCC3)cc(=O)n2c1 (stereo unspecified) | 0.944 | 1.28 | 0.898 | 0.647 | 0.975 | 0.772 | 1.02 | 1.12 | 0.545 | 0.983 | 0.932 | 0.939 | 0.924 | 0.904 | 0.933 | 0.969 | 0.941 | 1.05
CCCS(=O)(=O)Nc1ccc(F)c(C(=O)c2c[nH]c3ncc(-c4ccc(Cl)cc4)cc23)c1F [Vemurafenib (PLX4032)] | 1.22 | 1.08 | 1.23 | 1.5 | 1.14 | 1.13 | 0.881 | 1.05 | 1.04 | 1.08 | 1.05 | 0.988 | 1.06 | 0.993 | 0.977 | 1.03 | 1.05 | 1.03
CS(=O)(=O)c1cccc(CNc2nc(Nc3ccc4c(c3)CCC(=O)N4)ncc2C(F)(F)F)c1 | 1.23 | 1.2 | 0.813 | 1.48 | 1.1 | 0.612 | 1 | 1.13 | 0.709 | 1.12 | 1.04 | 0.876 | 1.04 | 1.08 | 0.873 | 1.01 | 1.09 | 0.869
C[C@H](Nc1ncnc2nc[nH]c12)c1cc2cccc(Cl)c2c(=O)n1-c1ccccc1 | 1.03 | 1.45 | 1.1 | 1.22 | 1.26 | 1.15 | 1.29 | 1.29 | 1.03 | 0.976 | 0.905 | 0.95 | 0.977 | 1.06 | 1.01 | 0.985 | 0.971 | 0.958
CNc1nc(-c2ccc3c(N)n[nH]c3c2)cc(N2C[C@@H](C(=O)NC3CCCCC3)CC[C@H]2C)n1 | 1.15 | 1.41 | 0.824 | 1.2 | 1.1 | 0.848 | 1.13 | 1.19 | 0.932 | 1.04 | 0.928 | 0.914 | 1.12 | 1.06 | 0.954 | 0.928 | 0.931 | 0.887
CC[C@H](Nc1ncnc2[nH]cnc12)c1nc2cccc(F)c2c(=O)n1-c1ccccc1 [CAL-101 (Idelalisib, GS-1101)] | 0.337 | 0.212 | 1.04 | 0.402 | 0.282 | 1.06 | 0.388 | 0.228 | 1.01 | 0.958 | 1.03 | 1.14 | 0.951 | 1.01 | 1.01 | 0.925 | 0.964 | 1.11
Cc1nc(Nc2ncc(C(=O)Nc3c(C)cccc3Cl)s2)cc(N2CCN(CCO)CC2)n1 | 0.957 | 0.451 | 0.367 | 1.12 | 0.46 | 0.247 | 0.808 | 0.395 | 0.334 | 0.797 | 0.628 | 0.638 | 0.936 | 0.635 | 0.625 | 0.803 | 0.665 | 0.603
CC(C)C[C@H](NC(=O)[C@H](Cc1ccccc1)C[C@@H](O)[C@H](Cc1ccccc1)NC(=O)OC(C)(C)C)C(=O)N[C@@H](Cc1ccccc1)C(N)=O | 2.17 | 3.04 | 1.91 | 1.2 | 1.29 | 1.33 | 1.22 | 1.42 | 1.42 | 0.827 | 0.813 | 0.688 | 0.872 | 0.828 | 0.683 | 1.18 | 1.07 | 1.09
COc1cc2ncc(-c3ccccc3)nc2cc1OC [Tyrphostin AG 1296] | 1.27 | 1.94 | 1.24 | 0.73 | 0.668 | 0.764 | 0.715 | 0.784 | 0.854 | 0.462 | 0.406 | 0.236 | 0.515 | 0.451 | 0.273 | 0.592 | 0.58 | 0.456
COc1cccc2c1C(=O)c1c(O)c3c(c(O)c1C2=O)C[C@@](O)(C(=O)CO)C[C@@H]3O[C@H]1C[C@H](N)[C@@H](O)[C@H](C)O1 [Epirubicin HCl] | 0.676 | 0.0422 | -0.127 | 0.764 | -0.198 | -0.349 | 0.462 | -0.0484 | -0.217 | 1.04 | 0.0981 | -0.0563 | 1.06 | 0.114 | -0.0409 | 1.05 | 0.123 | -0.0422
N=C(N)NC(=N)NCCc1ccccc1 [Phenformin HCl] | 1.31 | 1.36 | 1.38 | 1.19 | 1.57 | 1.53 | 1.36 | 1.25 | 1.18 | 1.03 | 1.08 | 0.969 | 1.06 | 1.07 | 0.977 | 1.1 | 1.1 | 1.08
C[C@]12CC[C@@H]3c4ccc(O)cc4C[C@@H](CCCCCCCCC[S+]([O-])CCCC(F)(F)C(F)(F)F)[C@H]3[C@@H]1CC[C@@H]2O (stereo partly specified) [Fulvestrant (Faslodex)] | 1.13 | 1.08 | 1.33 | 1.04 | 1.19 | 1.4 | 0.969 | 1.04 | 1.24 | 1.03 | 0.904 | 0.737 | 0.982 | 0.978 | 0.769 | 1.08 | 0.951 | 0.816
C[C@@H]1COCCN1c1cc(C2([S@](C)(=N)=O)CC2)nc(-c2cc[nH]c3nccc2-3)n1 | 2.2 | 2.58 | 0.637 | 1.37 | 1.07 | 0.283 | 1.39 | 0.681 | 0.349 | 0.843 | 0.836 | 0.674 | 0.9 | 0.79 | 0.664 | 1.19 | 1.14 | 1.08
COc1nccc(-c2c(-c3ccc(F)cc3)ncn2C2CCC(O)CC2)n1 (stereo unspecified) | 2.05 | 2.98 | 2.05 | 1.4 | 1.22 | 1.22 | 1.37 | 1.36 | 1.33 | 0.837 | 0.823 | 0.684 | 0.86 | 0.817 | 0.74 | 1.19 | 1.04 | 1.04
CN1CCN(c2ccc3nc(-c4c(N)c5c(F)cccc5[nH]c4=O)[nH]c3c2)CC1 [Dovitinib (TKI-258, CHIR-258)] | 1.41 | 1.79 | 0.502 | 1.58 | 1.3 | 0.434 | 1.06 | 1.51 | 0.426 | 0.86 | 0.828 | 0.582 | 0.874 | 0.779 | 0.661 | 0.916 | 0.882 | 0.501
CN(C)c1nc(N(C)C)nc(N(C)C)n1 [Altretamine (Hexalen)] | 1.07 | 1.12 | 1.01 | 0.93 | 1.27 | 1.1 | 1.17 | 1.05 | 1.07 | 1.03 | 1.02 | 0.985 | 1.06 | 1.02 | 1.02 | 1.07 | 1.01 | 1.01
COc1cc2ncnc(Nc3cccc(Cl)c3)c2cc1OC [AG-1478 (Tyrphostin AG-1478)] | 1.33 | 1.28 | 1.1 | 1.23 | 1.25 | 0.356 | 1.37 | 1.18 | 0.926 | 0.961 | 0.981 | 0.824 | 1.08 | 1.02 | 0.836 | 1.06 | 1.02 | 0.869
COc1cc(Nc2ncc(F)c(Nc3ccc4c(n3)NC(=O)C(C)(C)O4)n2)cc(OC)c1OC [R406 (free base)] | 1.11 | 0.977 | 0.105 | 1.45 | 0.999 | 0.306 | 0.853 | 1.01 | 0.279 | 1.11 | 1.05 | 0.905 | 0.709 | 1.02 | 0.999 | 0.503 | 1.07 | 0.832
CCN1/C(=C/C(C)=O)Sc2ccc(OC)cc21 | 1.16 | 1.44 | 1.07 | 1.49 | 1.4 | 1.09 | 1.29 | 1.31 | 1.33 | 1.01 | 0.942 | 1 | 1.12 | 1.02 | 1.05 | 0.96 | 0.991 | 0.998
CN(C)Cc1cccc(N/C(=C2\C(=O)Nc3cc(C(N)=O)ccc32)c2ccccc2)c1 | 1.41 | 1.38 | 1.58 | 1.08 | 1.39 | 1.18 | 0.533 | 1.27 | 1.55 | 1.17 | 1.16 | 0.855 | 0.772 | 1.06 | 1.02 | 0.581 | 1.12 | 0.939
CCCS(=O)(=O)Nc1ccc(F)c(C(=O)c2c[nH]c3ncc(-c4ccc(Cl)cc4)cc23)c1F [Vemurafenib (PLX4032, RG7204)] | 1.41 | 1.46 | 1.54 | 1.99 | 1.27 | 1.13 | 1.36 | 1.19 | 1.24 | 1.2 | 1.13 | 0.855 | 1.08 | 1.04 | 0.798 | 1.01 | 0.637 | 0.874
NC1(Cc2ccc(Cl)cc2)CCN(c2ncnc3[nH]ccc23)CC1 | 1.34 | 1.36 | 1.01 | 1.32 | 1.49 | 1.07 | 1.43 | 1.21 | 0.978 | 1.04 | 1.03 | 0.982 | 1.08 | 1.05 | 0.931 | 1.06 | 1.05 | 0.901
CCCCCCCCCCCCc1ccc(S(=O)(=O)Nc2nncs2)cc1 | 1.28 | 1.53 | 1.57 | 1.96 | 1.31 | 1.26 | 0.615 | 1.41 | 1.44 | 1.14 | 1.16 | 0.969 | 0.656 | 1.05 | 1.04 | 0.567 | 1.1 | 0.974
CN1CCC(Nc2nc(Nc3ccc(Oc4ccccc4)cc3)c3c(=O)[nH]cc(Br)c3n2)CC1 | 1.13 | 1.35 | -0.185 | 0.662 | 0.379 | -0.178 | 0.638 | 0.538 | -0.198 | 0.591 | 0.531 | 0.00751 | 0.565 | 0.389 | 0.182 | 0.698 | 0.596 | 0.444
COc1ccc(-c2cc3c(C)nc(N)nc3n([C@H]3CC[C@H](OCCO)CC3)c2=O)cn1 | 0.869 | 0.46 | 0.243 | 0.829 | 0.577 | 0.377 | 0.991 | 0.467 | 0.302 | 0.907 | 0.974 | 0.814 | 0.926 | 0.978 | 0.771 | 1.03 | 0.923 | 0.709
N#CC1(c2ccc(NC(=O)c3cccnc3NCc3ccncc3)cc2)CCCC1 [Apatinib] | 1.34 | 1.26 | 1.51 | 0.805 | 0.649 | 1.41 | 0.557 | 1.17 | 1.18 | 0.648 | 0.58 | 0.873 | 1.11 | 0.946 | 0.848 | 0.557 | 0.739 | 0.745

Two records drawn at random from those above:
SMILES | cell viability (MDA-MB-231 GLI1; 0.05 µM) | cell viability (MDA-MB-231 GLI1; 0.5 µM) | cell viability (MDA-MB-231 GLI1; 5 µM) | cell viability (MDA-MB-231 Vector; 0.05 µM) | cell viability (MDA-MB-231 Vector; 0.5 µM) | cell viability (MDA-MB-231 Vector; 5 µM) | cell viability (MDA-MB-231 tGLI1; 0.05 µM) | cell viability (MDA-MB-231 tGLI1; 0.5 µM) | cell viability (MDA-MB-231 tGLI1; 5 µM) | cell viability (MDA-MB-231BRM GLI1; 0.05 µM) | cell viability (MDA-MB-231BRM GLI1; 0.5 µM) | cell viability (MDA-MB-231BRM GLI1; 5 µM) | cell viability (MDA-MB-231BRM Vector; 0.05 µM) | cell viability (MDA-MB-231BRM Vector; 0.5 µM) | cell viability (MDA-MB-231BRM Vector; 5 µM) | cell viability (MDA-MB-231BRM tGLI1; 0.05 µM) | cell viability (MDA-MB-231BRM tGLI1; 0.5 µM) | cell viability (MDA-MB-231BRM tGLI1; 5 µM)
CNc1nc(-c2ccc3c(N)n[nH]c3c2)cc(N2C[C@@H](C(=O)NC3CCCCC3)CC[C@H]2C)n1 | 1.15 | 1.41 | 0.824 | 1.2 | 1.1 | 0.848 | 1.13 | 1.19 | 0.932 | 1.04 | 0.928 | 0.914 | 1.12 | 1.06 | 0.954 | 0.928 | 0.931 | 0.887
Cc1cc(C(C)Nc2ccccc2)c2nc(N3CCOCC3)cc(=O)n2c1 (stereo unspecified) | 0.944 | 1.28 | 0.898 | 0.647 | 0.975 | 0.772 | 1.02 | 1.12 | 0.545 | 0.983 | 0.932 | 0.939 | 0.924 | 0.904 | 0.933 | 0.969 | 0.941 | 1.05
